PMC5758779
These are yes or no findings as the source states them, for the method shown. Binding seen in cells or lysates may run through a third protein. Some binding calls cover weakened binding; strength is not graded here. Where a sequence is shown, tags or fusion partners need not be part of it.

By UniProt entry, the sequences of proteins in these tests, tags left out.
UniProt Q00444: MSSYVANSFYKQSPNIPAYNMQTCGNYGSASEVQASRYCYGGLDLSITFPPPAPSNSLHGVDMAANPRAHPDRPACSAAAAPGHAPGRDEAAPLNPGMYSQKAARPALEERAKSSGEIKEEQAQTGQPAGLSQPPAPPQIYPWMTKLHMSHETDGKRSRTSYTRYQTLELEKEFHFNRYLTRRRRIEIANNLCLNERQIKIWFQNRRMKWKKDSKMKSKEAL

Experiments:
V5-tagged Meis2 (human) = biological target: T1, V5-tagged Meis2 (human) (UniProt O14770); test: co-IP; immunoprecipitation of V5-tagged Meis1-3, Flag-tagged HoxC5 detected (Supplementary Fig. 7e)
T1 sequence: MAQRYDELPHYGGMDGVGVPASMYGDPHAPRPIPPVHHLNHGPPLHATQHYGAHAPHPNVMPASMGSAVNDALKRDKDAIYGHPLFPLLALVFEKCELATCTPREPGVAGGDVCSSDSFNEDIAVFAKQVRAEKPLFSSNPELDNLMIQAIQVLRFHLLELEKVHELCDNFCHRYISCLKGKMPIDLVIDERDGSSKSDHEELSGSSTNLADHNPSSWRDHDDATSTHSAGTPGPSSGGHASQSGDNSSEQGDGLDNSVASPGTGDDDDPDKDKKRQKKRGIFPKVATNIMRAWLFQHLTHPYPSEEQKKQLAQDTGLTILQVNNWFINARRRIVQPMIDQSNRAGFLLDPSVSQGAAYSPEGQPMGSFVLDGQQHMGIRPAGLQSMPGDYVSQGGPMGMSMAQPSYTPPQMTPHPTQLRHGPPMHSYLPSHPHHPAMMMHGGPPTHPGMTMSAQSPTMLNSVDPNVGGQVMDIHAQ

V5-tagged Meis3 (human) = biological target: T2, V5-tagged Meis3 (human) (UniProt Q99687); test: as above
T2 sequence: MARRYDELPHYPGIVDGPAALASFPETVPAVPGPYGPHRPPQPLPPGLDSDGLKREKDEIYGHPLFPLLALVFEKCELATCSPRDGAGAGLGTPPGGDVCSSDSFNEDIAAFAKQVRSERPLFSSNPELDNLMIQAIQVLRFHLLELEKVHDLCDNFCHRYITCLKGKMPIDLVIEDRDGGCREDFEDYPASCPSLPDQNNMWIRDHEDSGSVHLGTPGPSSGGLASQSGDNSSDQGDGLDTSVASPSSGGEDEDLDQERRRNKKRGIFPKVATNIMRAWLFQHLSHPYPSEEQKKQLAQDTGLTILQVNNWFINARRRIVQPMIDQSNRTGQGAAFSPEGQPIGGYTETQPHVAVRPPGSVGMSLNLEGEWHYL

V5-tagged Meis1 (human) = biological target: T3, V5-tagged Meis1 (human) (UniProt O00470); test: as above
T3 sequence: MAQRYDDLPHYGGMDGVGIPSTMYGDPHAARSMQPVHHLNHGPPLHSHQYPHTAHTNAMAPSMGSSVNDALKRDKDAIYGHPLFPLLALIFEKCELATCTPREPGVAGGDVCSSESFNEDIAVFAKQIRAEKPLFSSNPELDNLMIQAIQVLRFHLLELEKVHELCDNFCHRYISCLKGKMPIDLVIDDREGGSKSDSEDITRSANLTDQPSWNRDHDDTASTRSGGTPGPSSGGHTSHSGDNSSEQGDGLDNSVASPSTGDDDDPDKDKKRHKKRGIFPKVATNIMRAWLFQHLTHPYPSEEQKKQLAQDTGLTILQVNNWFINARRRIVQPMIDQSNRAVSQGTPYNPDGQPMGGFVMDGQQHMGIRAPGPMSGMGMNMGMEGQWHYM

Flag-tagged Pbx1 (human) = biological target: T4, Flag-tagged Pbx1 (human) (UniProt P40424); test: co-IP; immunoprecipitation of Flag-tagged Pbx1-4, V5-tagged HoxC5 detected (Supplementary Fig. 7d)
T4 sequence: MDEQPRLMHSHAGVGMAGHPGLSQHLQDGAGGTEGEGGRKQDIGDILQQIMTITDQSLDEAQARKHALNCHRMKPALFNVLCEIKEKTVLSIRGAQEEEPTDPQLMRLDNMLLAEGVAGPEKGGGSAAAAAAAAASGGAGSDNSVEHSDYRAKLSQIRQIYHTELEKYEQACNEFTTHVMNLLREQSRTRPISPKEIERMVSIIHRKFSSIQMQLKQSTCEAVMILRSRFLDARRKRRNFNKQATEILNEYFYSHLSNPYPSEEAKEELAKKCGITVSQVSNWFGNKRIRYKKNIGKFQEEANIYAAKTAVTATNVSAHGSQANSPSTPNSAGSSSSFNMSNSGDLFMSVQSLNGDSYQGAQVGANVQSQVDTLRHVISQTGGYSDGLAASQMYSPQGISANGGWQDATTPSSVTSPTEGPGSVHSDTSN

Flag-tagged Pbx3 (human) = biological target: T5, Flag-tagged Pbx3 (human) (UniProt P40426); test: as above
T5 sequence: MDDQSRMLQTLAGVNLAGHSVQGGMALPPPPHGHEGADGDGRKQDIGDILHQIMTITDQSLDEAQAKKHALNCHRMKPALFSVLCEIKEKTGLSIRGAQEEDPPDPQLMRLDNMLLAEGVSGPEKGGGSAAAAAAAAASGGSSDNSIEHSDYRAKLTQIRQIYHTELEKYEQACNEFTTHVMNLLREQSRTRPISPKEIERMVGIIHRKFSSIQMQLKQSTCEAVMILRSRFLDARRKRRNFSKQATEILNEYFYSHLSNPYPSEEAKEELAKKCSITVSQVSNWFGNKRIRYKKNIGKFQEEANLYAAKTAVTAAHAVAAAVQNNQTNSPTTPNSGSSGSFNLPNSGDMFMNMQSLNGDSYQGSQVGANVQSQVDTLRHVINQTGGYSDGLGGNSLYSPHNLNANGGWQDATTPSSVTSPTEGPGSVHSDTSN

Flag-tagged Pbx2 (human) = biological target: T6, Flag-tagged Pbx2 (human) (UniProt P40425); test: as above
T6 sequence: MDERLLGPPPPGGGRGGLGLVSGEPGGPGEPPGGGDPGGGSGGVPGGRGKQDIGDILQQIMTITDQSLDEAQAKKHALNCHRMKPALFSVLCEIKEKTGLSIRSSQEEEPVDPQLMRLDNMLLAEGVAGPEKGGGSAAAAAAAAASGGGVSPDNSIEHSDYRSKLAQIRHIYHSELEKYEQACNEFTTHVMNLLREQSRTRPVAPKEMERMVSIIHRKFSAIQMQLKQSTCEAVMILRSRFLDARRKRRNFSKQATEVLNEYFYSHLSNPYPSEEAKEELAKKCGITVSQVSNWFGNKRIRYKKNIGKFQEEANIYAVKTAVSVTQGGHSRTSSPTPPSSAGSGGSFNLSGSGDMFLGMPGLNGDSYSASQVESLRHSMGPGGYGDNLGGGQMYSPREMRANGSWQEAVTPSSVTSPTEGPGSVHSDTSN

Flag-tagged Pbx4 (human) = biological target: T7, Flag-tagged Pbx4 (human) (UniProt Q9BYU1); test: as above
T7 sequence: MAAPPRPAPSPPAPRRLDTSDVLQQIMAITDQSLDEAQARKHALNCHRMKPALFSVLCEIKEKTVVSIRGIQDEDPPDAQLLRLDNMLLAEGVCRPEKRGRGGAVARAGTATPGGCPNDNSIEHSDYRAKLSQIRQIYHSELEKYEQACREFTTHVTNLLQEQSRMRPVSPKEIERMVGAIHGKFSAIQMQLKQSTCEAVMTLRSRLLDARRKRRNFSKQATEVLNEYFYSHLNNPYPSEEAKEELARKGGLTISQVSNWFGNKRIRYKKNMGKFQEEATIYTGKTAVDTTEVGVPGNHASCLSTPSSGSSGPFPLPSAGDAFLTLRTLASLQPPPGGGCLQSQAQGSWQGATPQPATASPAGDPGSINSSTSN

binding (V5-tagged Meis2 (human)) | binding (V5-tagged Meis3 (human)) | binding (V5-tagged Meis1 (human)) | binding (Flag-tagged Pbx1 (human)) | binding (Flag-tagged Pbx3 (human)) | binding (Flag-tagged Pbx2 (human)) | binding (Flag-tagged Pbx4 (human)) | Substance
no binding | binds | no binding |  |  |  |  | Flag-tagged HoxC5 (from UniProt Q00444 1-222)
 |  |  | no binding | no binding | no binding | binds | V5-tagged HoxC5 (from UniProt Q00444 1-222)
